Reference: the supplement of paper PMC10849652
The other results are listed elsewhere or left out.

Amino acid sequences for entries named in this document (tags omitted). A change or cut given only in a name is not applied to a line headed by its entry.
UniProt Q9UH92: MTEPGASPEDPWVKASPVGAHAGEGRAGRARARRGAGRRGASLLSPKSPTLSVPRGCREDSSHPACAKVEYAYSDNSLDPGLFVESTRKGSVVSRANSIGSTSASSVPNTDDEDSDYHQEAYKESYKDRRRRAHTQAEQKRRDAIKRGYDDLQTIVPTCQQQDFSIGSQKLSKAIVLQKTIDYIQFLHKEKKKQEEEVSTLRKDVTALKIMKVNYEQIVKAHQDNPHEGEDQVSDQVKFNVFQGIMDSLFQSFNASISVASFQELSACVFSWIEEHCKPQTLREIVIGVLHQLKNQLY
UniProt Q86YT6, whole entry, looked up: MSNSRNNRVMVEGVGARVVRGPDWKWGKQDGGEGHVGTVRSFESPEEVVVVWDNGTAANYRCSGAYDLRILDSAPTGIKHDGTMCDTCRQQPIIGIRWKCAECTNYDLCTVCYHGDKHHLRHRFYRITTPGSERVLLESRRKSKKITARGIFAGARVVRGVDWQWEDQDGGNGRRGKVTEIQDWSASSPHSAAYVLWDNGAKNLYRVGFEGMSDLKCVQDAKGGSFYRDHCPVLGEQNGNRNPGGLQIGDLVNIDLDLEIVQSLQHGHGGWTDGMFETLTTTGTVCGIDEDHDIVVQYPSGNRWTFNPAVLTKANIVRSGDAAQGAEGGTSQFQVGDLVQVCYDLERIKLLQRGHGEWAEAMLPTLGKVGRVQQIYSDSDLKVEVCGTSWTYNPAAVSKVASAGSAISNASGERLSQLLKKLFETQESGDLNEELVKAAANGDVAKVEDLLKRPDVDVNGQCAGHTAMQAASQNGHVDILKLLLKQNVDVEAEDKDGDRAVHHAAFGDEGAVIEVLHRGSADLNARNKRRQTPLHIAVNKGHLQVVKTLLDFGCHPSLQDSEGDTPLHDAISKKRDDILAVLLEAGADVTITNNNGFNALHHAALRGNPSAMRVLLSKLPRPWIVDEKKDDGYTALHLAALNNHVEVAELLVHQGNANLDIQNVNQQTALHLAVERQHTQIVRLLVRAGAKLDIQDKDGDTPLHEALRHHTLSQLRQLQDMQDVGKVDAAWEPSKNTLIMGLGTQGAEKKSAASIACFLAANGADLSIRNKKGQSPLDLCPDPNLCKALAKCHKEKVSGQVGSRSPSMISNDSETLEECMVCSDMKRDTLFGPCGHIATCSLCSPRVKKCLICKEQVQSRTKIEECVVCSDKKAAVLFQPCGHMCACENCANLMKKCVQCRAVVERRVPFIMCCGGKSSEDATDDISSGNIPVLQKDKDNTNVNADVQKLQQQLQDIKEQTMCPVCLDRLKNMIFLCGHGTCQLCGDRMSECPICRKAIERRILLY
UniProt P40692: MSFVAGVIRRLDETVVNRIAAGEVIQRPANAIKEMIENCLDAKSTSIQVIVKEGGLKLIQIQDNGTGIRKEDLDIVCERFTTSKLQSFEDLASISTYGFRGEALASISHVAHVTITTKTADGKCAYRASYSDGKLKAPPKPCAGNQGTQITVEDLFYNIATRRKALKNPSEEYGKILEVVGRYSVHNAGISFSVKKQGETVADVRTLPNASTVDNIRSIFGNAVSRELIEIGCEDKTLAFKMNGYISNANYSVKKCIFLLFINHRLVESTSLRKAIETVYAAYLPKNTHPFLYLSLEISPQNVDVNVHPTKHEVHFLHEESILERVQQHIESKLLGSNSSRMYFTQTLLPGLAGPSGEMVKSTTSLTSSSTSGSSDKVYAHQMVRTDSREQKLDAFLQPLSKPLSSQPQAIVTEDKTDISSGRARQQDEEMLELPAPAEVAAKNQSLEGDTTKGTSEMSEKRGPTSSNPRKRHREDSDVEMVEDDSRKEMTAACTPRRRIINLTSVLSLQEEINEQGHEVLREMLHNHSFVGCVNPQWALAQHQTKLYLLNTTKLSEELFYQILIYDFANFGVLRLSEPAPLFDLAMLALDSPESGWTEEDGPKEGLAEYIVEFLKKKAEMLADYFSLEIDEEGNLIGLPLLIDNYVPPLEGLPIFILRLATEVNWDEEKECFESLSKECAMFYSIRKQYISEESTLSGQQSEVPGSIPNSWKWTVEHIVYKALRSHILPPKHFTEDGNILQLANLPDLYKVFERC
UniProt Q8NHP6: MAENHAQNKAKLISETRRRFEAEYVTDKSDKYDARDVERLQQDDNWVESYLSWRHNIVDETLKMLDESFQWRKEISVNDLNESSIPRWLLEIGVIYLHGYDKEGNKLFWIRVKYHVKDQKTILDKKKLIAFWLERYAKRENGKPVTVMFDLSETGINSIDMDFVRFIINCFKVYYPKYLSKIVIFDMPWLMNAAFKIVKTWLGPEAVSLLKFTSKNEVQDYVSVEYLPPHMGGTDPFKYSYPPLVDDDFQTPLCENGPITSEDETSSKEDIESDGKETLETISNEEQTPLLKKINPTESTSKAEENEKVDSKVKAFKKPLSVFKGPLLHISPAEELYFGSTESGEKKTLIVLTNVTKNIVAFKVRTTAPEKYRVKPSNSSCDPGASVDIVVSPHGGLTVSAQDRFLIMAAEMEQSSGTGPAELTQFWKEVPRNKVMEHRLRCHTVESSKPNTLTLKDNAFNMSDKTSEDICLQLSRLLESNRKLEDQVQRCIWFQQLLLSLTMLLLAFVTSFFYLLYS
UniProt Q9NXC5: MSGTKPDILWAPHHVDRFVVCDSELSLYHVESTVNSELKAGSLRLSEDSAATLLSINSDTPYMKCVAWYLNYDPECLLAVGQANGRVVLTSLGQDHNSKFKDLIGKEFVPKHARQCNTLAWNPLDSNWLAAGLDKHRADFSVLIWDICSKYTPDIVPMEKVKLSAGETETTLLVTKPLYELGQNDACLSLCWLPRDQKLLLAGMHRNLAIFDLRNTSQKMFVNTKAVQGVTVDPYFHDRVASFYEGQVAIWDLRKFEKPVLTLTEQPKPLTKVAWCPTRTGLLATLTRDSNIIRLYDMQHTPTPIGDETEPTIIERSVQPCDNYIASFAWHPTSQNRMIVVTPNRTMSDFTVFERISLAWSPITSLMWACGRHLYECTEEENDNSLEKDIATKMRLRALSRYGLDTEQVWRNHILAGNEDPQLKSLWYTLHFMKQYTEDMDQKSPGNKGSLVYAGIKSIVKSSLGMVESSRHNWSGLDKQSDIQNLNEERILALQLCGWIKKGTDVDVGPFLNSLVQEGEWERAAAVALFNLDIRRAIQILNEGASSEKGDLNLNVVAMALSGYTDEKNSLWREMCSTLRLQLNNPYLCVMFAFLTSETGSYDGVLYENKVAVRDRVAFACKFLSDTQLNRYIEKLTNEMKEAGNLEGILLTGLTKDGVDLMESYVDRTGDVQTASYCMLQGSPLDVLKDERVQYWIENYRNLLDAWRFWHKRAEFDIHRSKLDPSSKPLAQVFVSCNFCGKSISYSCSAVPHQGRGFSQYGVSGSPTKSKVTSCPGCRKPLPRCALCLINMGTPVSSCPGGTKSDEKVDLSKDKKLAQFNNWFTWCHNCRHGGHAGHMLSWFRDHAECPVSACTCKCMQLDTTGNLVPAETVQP
UniProt P34949: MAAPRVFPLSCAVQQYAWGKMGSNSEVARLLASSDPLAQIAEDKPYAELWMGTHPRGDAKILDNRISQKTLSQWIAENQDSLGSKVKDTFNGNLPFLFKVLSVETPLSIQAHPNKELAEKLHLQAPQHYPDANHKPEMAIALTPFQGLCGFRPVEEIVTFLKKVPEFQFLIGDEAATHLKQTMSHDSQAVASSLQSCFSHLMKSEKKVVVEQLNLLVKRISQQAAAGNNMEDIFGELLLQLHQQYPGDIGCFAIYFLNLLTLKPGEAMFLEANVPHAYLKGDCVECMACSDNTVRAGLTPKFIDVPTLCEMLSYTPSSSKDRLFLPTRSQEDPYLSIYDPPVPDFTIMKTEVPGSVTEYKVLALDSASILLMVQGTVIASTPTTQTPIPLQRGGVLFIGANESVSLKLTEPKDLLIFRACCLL
UniProt Q5JRA6: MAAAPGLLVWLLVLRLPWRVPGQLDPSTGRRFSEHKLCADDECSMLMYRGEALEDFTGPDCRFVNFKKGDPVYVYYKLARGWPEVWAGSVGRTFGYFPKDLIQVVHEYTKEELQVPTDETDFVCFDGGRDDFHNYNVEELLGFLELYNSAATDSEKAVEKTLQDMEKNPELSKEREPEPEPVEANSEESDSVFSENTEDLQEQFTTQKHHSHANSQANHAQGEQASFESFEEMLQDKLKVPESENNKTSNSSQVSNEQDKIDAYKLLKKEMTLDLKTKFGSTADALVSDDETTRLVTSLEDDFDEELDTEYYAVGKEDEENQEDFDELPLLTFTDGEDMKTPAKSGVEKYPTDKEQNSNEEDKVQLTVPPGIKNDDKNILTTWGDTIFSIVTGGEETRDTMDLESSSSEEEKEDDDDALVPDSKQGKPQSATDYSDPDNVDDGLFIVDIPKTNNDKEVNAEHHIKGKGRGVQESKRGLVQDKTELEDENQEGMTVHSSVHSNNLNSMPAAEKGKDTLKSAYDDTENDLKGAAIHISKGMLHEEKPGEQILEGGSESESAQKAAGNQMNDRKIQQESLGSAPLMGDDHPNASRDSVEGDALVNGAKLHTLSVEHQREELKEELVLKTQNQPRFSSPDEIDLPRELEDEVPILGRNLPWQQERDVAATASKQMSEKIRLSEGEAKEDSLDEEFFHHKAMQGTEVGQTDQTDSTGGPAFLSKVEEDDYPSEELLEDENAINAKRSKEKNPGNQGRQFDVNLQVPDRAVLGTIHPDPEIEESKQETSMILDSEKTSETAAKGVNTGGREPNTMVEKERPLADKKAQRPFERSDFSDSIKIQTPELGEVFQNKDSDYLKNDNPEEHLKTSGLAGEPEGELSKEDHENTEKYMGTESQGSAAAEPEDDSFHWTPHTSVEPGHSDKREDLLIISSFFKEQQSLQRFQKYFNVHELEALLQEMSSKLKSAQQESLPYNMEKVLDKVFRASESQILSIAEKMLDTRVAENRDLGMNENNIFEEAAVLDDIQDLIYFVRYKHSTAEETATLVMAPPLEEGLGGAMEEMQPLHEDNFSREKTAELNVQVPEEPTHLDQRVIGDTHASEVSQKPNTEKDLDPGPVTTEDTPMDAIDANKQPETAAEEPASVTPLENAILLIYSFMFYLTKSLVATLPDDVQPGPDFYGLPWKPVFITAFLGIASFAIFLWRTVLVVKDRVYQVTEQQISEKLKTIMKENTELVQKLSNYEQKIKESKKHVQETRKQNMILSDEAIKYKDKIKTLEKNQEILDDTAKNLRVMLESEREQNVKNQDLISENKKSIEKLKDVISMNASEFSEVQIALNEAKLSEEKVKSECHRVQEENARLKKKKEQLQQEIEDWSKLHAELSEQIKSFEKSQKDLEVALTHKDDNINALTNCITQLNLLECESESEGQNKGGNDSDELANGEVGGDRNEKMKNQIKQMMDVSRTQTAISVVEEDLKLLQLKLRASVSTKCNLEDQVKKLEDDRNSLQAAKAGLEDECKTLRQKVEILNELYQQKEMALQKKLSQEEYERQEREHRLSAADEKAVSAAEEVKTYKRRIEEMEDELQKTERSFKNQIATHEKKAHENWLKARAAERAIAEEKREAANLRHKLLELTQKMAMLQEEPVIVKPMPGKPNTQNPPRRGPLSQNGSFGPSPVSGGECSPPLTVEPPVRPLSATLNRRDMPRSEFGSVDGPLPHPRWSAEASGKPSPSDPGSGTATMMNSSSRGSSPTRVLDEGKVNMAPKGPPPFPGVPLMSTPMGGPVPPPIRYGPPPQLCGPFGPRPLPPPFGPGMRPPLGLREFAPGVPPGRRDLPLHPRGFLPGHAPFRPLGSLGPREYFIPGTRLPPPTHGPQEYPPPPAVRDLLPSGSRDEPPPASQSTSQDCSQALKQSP
UniProt Q8N4V1: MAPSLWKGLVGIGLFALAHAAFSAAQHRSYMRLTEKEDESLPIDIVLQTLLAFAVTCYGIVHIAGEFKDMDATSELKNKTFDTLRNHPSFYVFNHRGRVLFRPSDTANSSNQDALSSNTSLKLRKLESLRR
UniProt O96033: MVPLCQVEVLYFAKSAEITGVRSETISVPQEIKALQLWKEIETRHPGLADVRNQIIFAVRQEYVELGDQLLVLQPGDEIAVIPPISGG
UniProt Q99583: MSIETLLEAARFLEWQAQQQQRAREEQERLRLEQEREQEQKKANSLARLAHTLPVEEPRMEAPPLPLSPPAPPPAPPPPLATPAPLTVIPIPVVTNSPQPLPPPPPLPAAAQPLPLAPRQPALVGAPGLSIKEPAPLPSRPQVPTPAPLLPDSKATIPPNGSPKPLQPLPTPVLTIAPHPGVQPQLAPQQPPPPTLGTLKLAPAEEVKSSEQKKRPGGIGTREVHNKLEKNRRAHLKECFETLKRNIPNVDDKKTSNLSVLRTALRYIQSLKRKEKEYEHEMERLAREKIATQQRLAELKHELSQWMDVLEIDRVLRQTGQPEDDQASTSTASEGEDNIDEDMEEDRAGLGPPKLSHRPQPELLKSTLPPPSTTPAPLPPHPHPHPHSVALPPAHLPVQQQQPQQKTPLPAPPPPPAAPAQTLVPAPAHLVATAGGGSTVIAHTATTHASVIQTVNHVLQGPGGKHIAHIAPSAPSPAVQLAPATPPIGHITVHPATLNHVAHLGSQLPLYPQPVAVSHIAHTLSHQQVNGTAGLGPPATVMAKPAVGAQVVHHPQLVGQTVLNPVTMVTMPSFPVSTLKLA

Key:
Experiment in all cases: log2 fold change, soluble protein after heating vs DMSO (PISA); higher = thermal stabilisation; K562 lysate, 10 uM; active = over 0.2 and 3.5 SD of the protein, either way, in both replicates (recomputed)
erlotinib = compound: C#Cc1cccc(Nc2ncnc3cc(OCCOC)c(OCCOC)cc23)c1 [erlotinib]
Summary of the method: (§1)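 Following dounce homogenisation of K562 pellets in PBS pH 7.4 with 1 mM MgCl2, crude extract at 1 mg/mL protein was incubated for 30 min with 10 μM compound. Aliquots were then heated for 3 min over 48°C-58°C and pooled, NP-40 was added to 0.5% at 4°C, and soluble protein was recovered as the supernatant at 21,000xg for 90 min. Channel-sum-equalised TMTpro 16plex LC-MS/MS quantified this protein. Each value, from duplicates, is a log-two fold change in thermal stability relative to solvent controls.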

[1] = compound: C/C(=N\NC(=O)C1=CC(=CC=C1)S(=O)(=O)N2CCOCC2)/C3=C(C=CC(=C3)Cl)O
Summary of the method: as §1

[2] = compound: C1=CC(=CC=C1C2=NC3=C(N2)C=C(C=C3)C(=O)N)OC4=CC=C(C=C4)Cl
Summary of the method: as §1

[3] = compound: C1=CC2=C(C=CC(=C2)/C=C\3/C(=O)NC(=NCC4=CC=CS4)S3)N=C1
Summary of the method: as §1

[4] = compound: C1=CC2=NC=CN=C2C=C1/C=C/3\C(=O)NC(=O)S3
Summary of the method: as §1

[5] = compound: C1=CC=C(C=C1)C2=NC(=C(N2)C3=CC=NC=C3)C4=CC(=C(C=C4)Cl)O
Summary of the method: as §1

[6] = compound: C1=CC=C2C(=C1)C3=NNC4=CC=CC(=C43)C2=O
Summary of the method: as §1

[7] = compound: C1CCN(C1)C(=O)NC2=CC=CC(=C2)NC3=NC=C(C(=N3)NCCC4=CN=CN4)Br
Summary of the method: as §1

[8] = compound: C1CN(CCC1(CC2=CC=C(C=C2)Cl)N)C3=NC=NC4=C3C=CN4
Summary of the method: as §1

IRAK-1-4 Inhibitor I = compound: C1COCCN1CCN2C3=CC=CC=C3N=C2NC(=O)C4=CC(=CC=C4)[N+](=O)[O-] [IRAK-1-4 Inhibitor I]
Summary of the method: as §1

Measured: log2 fold change

MRGBP (UniProt Q9NV56)
inactive: erlotinib -0.055 | [1] -0.017 | [2] 0.023 | [3] 0.053 | [4] -0.032 | [5] 0.055 | [6] -0.039 | [7] 0.084 | [8] -0.01 | IRAK-1-4 Inhibitor I -0.038

MLX (UniProt Q9UH92)
inactive: erlotinib 0.091 | [1] -0.03 | [2] 0.003 | [3] -0.016 | [4] -0.029 | [5] 0.03 | [6] -0.096 | [7] -0.011 | [8] 0.023 | IRAK-1-4 Inhibitor I 0.021

MIER2 (UniProt Q8N344)
inactive: erlotinib -0.011 | [1] -0.043 | [2] 0.226 | [3] -0.038 | [4] 0 | [5] 0.057 | [6] 0.085 | [7] -0.055 | [8] 0.749 | IRAK-1-4 Inhibitor I 0.001

MIB1 (UniProt Q86YT6)
inactive: erlotinib 0.049 | [1] 0.029 | [2] -0.043 | [3] -0.043 | [4] 0.002 | [5] 0.025 | [6] -0.046 | [7] 0.011 | [8] 0.081 | IRAK-1-4 Inhibitor I -0.004

MLH1 (UniProt P40692)
inactive: erlotinib 0.018 | [1] 0.021 | [2] -0.011 | [3] 0.012 | [4] -0.079 | [5] 0.025 | [6] -0.019 | [7] -0.037 | [8] 0.015 | IRAK-1-4 Inhibitor I -0.002

MOSPD2 (UniProt Q8NHP6)
inactive: erlotinib -0.049 | [1] 0.152 | [2] 0 | [3] 0.072 | [4] 0.027 | [5] -0.015 | [6] 0.157 | [7] -0.062 | [8] -0.023 | IRAK-1-4 Inhibitor I 0.057

MICALL2 (UniProt Q8IY33)
inactive: erlotinib -0.041 | [1] -0.044 | [2] 0.003 | [3] -0.003 | [4] -0.033 | [5] -0.009 | [6] -0.005 | [7] -0.026 | [8] 0.009 | IRAK-1-4 Inhibitor I 0.016

MPP5 (UniProt Q8N3R9)
inactive: erlotinib 0.039 | [1] -0.009 | [2] 0.027 | [3] -0.016 | [4] 0.038 | [5] 0.01 | [6] -0.038 | [7] -0.028 | [8] -0.013 | IRAK-1-4 Inhibitor I 0.085

MORC2 (UniProt Q9Y6X9)
inactive: erlotinib 0.039 | [1] -0.05 | [2] -0.002 | [3] 0.015 | [4] -0.016 | [5] -0.001 | [6] -0.033 | [7] 0.006 | [8] -0.023 | IRAK-1-4 Inhibitor I 0.034

MIOS (UniProt Q9NXC5)
inactive: erlotinib -0.003 | [1] -0.007 | [2] 0.005 | [3] 0.034 | [4] 0.016 | [5] 0.02 | [6] -0.021 | [7] -0.025 | [8] -0.001 | IRAK-1-4 Inhibitor I -0.017

2 consecutive records already listed:
MPP5 (UniProt Q8N3R9)
inactive: erlotinib 0.039 | [1] -0.009 | [2] 0.027 | [3] -0.016 | [4] 0.038 | [5] 0.01 | [6] -0.038 | [7] -0.028 | [8] -0.013 | IRAK-1-4 Inhibitor I 0.085

MORC2 (UniProt Q9Y6X9)
inactive: erlotinib 0.039 | [1] -0.05 | [2] -0.002 | [3] 0.015 | [4] -0.016 | [5] -0.001 | [6] -0.033 | [7] 0.006 | [8] -0.023 | IRAK-1-4 Inhibitor I 0.034

Additional results:

MPI (UniProt P34949)
inactive: erlotinib 0.02 | [1] 0.045 | [2] 0.046 | [3] -0.018 | [4] -0.014 | [5] 0.022 | [6] -0.02 | [7] -0.003 | [8] 0.038 | IRAK-1-4 Inhibitor I 0.035

MRFAP1 (UniProt Q9Y605)
inactive: erlotinib -0.032 | [1] -0.204 | [2] -0.024 | [3] 0.007 | [4] 0.177 | [5] -0.044 | [6] 0.007 | [7] -0.013 | [8] 0.023 | IRAK-1-4 Inhibitor I 0.091

MIA3 (UniProt Q5JRA6)
inactive: erlotinib -0.012 | [1] -0.033 | [2] 0.04 | [3] 0.015 | [4] -0.039 | [5] -0.02 | [6] -0.091 | [7] -0.009 | [8] 0.009 | IRAK-1-4 Inhibitor I -0.01

MOCOS (UniProt Q96EN8)
inactive: erlotinib 0.02 | [1] -0.064 | [2] 0.028 | [3] -0.007 | [4] -0.011 | [5] -0.033 | [6] 0.045 | [7] 0.078 | [8] 0.002 | IRAK-1-4 Inhibitor I -0.012

MLLT11 (UniProt Q13015)
inactive: erlotinib 0.053 | [1] -0.018 | [2] -0.271 | [3] 0.063 | [4] -0.038 | [5] -0.018 | [6] -0.054 | [7] -0.372 | [8] 0.111 | IRAK-1-4 Inhibitor I 0.044

MGA (UniProt Q8IWI9)
inactive: erlotinib 0.024 | [1] 0.018 | [2] 0.048 | [3] 0.055 | [4] 0.005 | [5] -0.008 | [6] -0.177 | [7] -0.092 | [8] 0.065 | IRAK-1-4 Inhibitor I 0.001

MNAT1 (UniProt P51948)
inactive: erlotinib -0.014 | [1] -0.043 | [2] 0.025 | [3] -0.089 | [4] -0.009 | [5] -0.004 | [6] 0.022 | [7] -0.008 | [8] 0.048 | IRAK-1-4 Inhibitor I 0.012

MMGT1 (UniProt Q8N4V1)
inactive: erlotinib -0.013 | [2] 0.021 | [4] -0.042 | [5] -0.019 | [7] -0.031 | [8] 0.035 | IRAK-1-4 Inhibitor I -0.032

MOCS2 (UniProt O96033)
inactive: [5] 0.009 | IRAK-1-4 Inhibitor I -0.029

MRNIP (UniProt Q6NTE8)
inactive: erlotinib -0.026 | [2] -0.039 | [4] 0.067 | [5] 0.068 | IRAK-1-4 Inhibitor I 0.075

MNT (UniProt Q99583)
inactive: erlotinib -0.181 | [1] -0.079 | [2] 0.223 | [3] 0.048 | [5] -0.007 | [6] 0.007 | [7] 0.036 | [8] 0.03 | IRAK-1-4 Inhibitor I -0.003

MRC2 (UniProt Q9UBG0)
inactive: erlotinib -0.225 | [2] 0.031 | [7] 0.011 | [8] 0.061

MRPL18 (UniProt Q9H0U6)
inactive: [1] 0.015 | [3] 0.025 | [5] 0.052 | [6] -0.065 | [7] -0.063 | [8] -0.041 | IRAK-1-4 Inhibitor I -0.146
